# From the supplement of paper PMC8728848
# The list shows a part of the results.
# B1: Drgal1 (Danio rerio) (protein)
# chain: MAGVLIQNMSFKVGQTLTITGVPKPDSTNFAINIGHSPEDIALHMNPRFDAHGDQCTIVCNSFQSGSWCEEHRDDNFPFIQDKEFQIKITFTNEEFLVTLPDGSEIHFPNRQGSEKYKYMYFEGEVRIQGVEIK
# Legend:
# Test in all cases: glycan array binding signal (z-score within array); higher = stronger binding
# Conditions in all cases: glycan notation: IUPAC condensed, linker removed
# [1] = target: Neu5Ac(a2-6)Gal(b1-4)GlcNAc(b1-3)Gal(b1-4)GlcNAc(b1-2)Man(a1-3)[Neu5Ac(a2-6)Gal(b1-4)GlcNAc(b1-3)Gal(b1-4)GlcNAc(b1-2)Man(a1-6)]GalNAc
# How it was run: (§1)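 The binding signal is a Z-score computed within each array. Data were drawn from 3228 arrays in the Consortium for Functional Glycomics database, restricted to those with a known protein sequence. Scores were averaged over arrays of the same protein sequence at different concentrations or buffers, and over linkers, and negative values can be taken as non-binding.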
# [2] = target: Neu5Ac(a2-6)Gal(b1-4)GlcNAc(b1-3)Gal(b1-4)GlcNAc(b1-3)Gal(b1-4)GlcNAc
# How it was run: as §1
# [3] = target: Neu5Ac(a2-6)Gal(b1-4)GlcNAc(b1-3)Gal(b1-4)GlcNAc(b1-3)Gal(b1-4)GlcNAc(b1-2)Man(a1-3)[Neu5Ac(a2-6)Gal(b1-4)GlcNAc(b1-3)Gal(b1-4)GlcNAc(b1-3)Gal(b1-4)GlcNAc(b1-2)Man(a1-6)]GalNAc
# How it was run: as §1
# [4] = target: Neu5Ac(a2-6)Gal(b1-4)GlcNAc(b1-3)Gal(b1-4)GlcNAc(b1-3)GalNAc
# How it was run: as §1
# [5] = target: Neu5Ac(a2-6)Gal(b1-4)GlcNAc(b1-3)Gal(b1-4)GlcNAc(b1-3)[Neu5Ac(a2-6)Gal(b1-4)GlcNAc(b1-3)Gal(b1-4)GlcNAc(b1-6)]GalNAc
# How it was run: as §1
# [6] = target: Neu5Ac(a2-6)Gal(b1-4)GlcNAc(b1-3)Gal(b1-4)GlcNAc(b1-6)[Gal(b1-3)]GalNAc
# How it was run: as §1
# [7] = target: Neu5Ac(a2-6)Gal(b1-4)GlcNAc(b1-3)Gal(b1-4)[Fuc(a1-3)]GlcNAc(b1-3)Gal(b1-4)[Fuc(a1-3)]GlcNAc
# How it was run: as §1
# [8] = target: Neu5Ac(a2-6)Gal(b1-4)GlcNAc(b1-3)GalNAc
# How it was run: as §1
# [9] = target: Neu5Ac(a2-6)Gal(b1-4)GlcNAc(b1-3)[Neu5Ac(a2-6)Gal(b1-4)GlcNAc(b1-6)]GalNAc
# How it was run: as §1
# [10] = target: Neu5Ac(a2-6)Gal(b1-4)GlcNAc(b1-6)GalNAc
# How it was run: as §1
# [11] = target: Neu5Ac(a2-6)Gal(b1-4)GlcNAc(b1-6)[Gal(b1-3)GlcNAc(b1-3)]Gal(b1-4)Glc
# How it was run: as §1
# [12] = target: Neu5Ac(a2-6)Gal(b1-4)GlcNAc(b1-6)[Gal(b1-3)]GalNAc
# How it was run: as §1
# [13] = target: Neu5Ac(a2-6)Gal(b1-4)GlcNAc6S
# How it was run: as §1
# Neu5Ac(a2-6)GalNAc = target: Neu5Ac(a2-6)GalNAc
# How it was run: as §1
# [14] = target: Neu5Ac(a2-6)GalNAc(b1-4)GlcNAc
# How it was run: as §1
# [15] = target: Neu5Ac(a2-6)GalNAc(b1-4)GlcNAc6S
# How it was run: as §1
# [16] = target: Neu5Ac(a2-6)GlcNAc(b1-4)GlcNAc
# How it was run: as §1
# [17] = target: Neu5Ac(a2-6)GlcNAc(b1-4)GlcNAc(b1-4)GlcNAc
# How it was run: as §1
# Neu5Ac(a2-8)Neu5Ac = target: Neu5Ac(a2-8)Neu5Ac
# How it was run: as §1
# [18] = target: Neu5Ac(a2-8)Neu5Ac(a2-3)Gal(b1-3)GalNAc(b1-4)[Neu5Ac(a2-3)]Gal(b1-4)Glc
# How it was run: as §1
# [19] = target: Neu5Ac(a2-8)Neu5Ac(a2-3)Gal(b1-3)GalNAc(b1-4)[Neu5Ac(a2-8)Neu5Ac(a2-3)]Gal(b1-4)Glc
# How it was run: as §1
# [20] = target: Neu5Ac(a2-8)Neu5Ac(a2-3)Gal(b1-4)Glc
# How it was run: as §1
# [21] = target: Neu5Ac(a2-8)Neu5Ac(a2-3)Gal(b1-4)GlcNAc
# How it was run: as §1
# [22] = target: Neu5Ac(a2-8)Neu5Ac(a2-3)[Gal(b1-3)GalNAc(b1-4)]Gal(b1-4)Glc
# How it was run: as §1
# [23] = target: Neu5Ac(a2-8)Neu5Ac(a2-3)[GalNAc(b1-4)]Gal(b1-4)Glc
# How it was run: as §1
# [24] = target: Neu5Ac(a2-8)Neu5Ac(a2-8)Neu5Ac
# How it was run: as §1
# [25] = target: Neu5Ac(a2-8)Neu5Ac(a2-8)Neu5Ac(a2-3)Gal(b1-4)Glc
# How it was run: as §1
# [26] = target: Neu5Ac(a2-8)Neu5Ac(a2-8)Neu5Ac(a2-3)[Gal(b1-3)GalNAc(b1-4)]Gal(b1-4)Glc
# How it was run: as §1
# [27] = target: Neu5Ac(a2-8)Neu5Ac(a2-8)Neu5Ac(a2-3)[GalNAc(b1-4)]Gal(b1-4)Glc
# How it was run: as §1
# [28] = target: Neu5Ac(a2-8)Neu5Ac(a2-8)Neu5Ac(a2-8)Neu5Ac(a2-3)[GalNAc(b1-4)]Gal(b1-4)Glc
# How it was run: as §1
# [29] = target: Neu5Ac(a2-8)Neu5Gc(a2-3)Gal(b1-4)GlcNAc
# How it was run: as §1
# [30] = target: Neu5Ac(b2-6)Gal(b1-4)GlcNAc
# How it was run: as §1
# Neu5Ac(b2-6)GalNAc = target: Neu5Ac(b2-6)GalNAc
# How it was run: as §1
# [31] = target: Neu5Ac9Ac(a2-3)Gal(b1-3)GlcNAc
# How it was run: as §1
# [32] = target: Neu5Ac9Ac(a2-3)Gal(b1-4)GlcNAc
# How it was run: as §1
# [33] = target: Neu5Ac9Ac(a2-6)Gal(b1-4)GlcNAc
# How it was run: as §1
# [34] = target: Neu5Gc(a2-3)Gal(b1-3)GlcNAc
# How it was run: as §1
# [35] = target: Neu5Gc(a2-3)Gal(b1-3)[Fuc(a1-4)]GlcNAc
# How it was run: as §1
# Neu5Gc(a2-3)Gal(b1-4)Glc = target: Neu5Gc(a2-3)Gal(b1-4)Glc
# How it was run: as §1
# [36] = target: Neu5Gc(a2-3)Gal(b1-4)GlcNAc
# How it was run: as §1
# [37] = target: Neu5Gc(a2-3)Gal(b1-4)GlcNAc(b1-3)Gal(b1-4)GlcNAc(b1-2)Man(a1-3)[Neu5Gc(a2-3)Gal(b1-4)GlcNAc(b1-3)Gal(b1-4)GlcNAc(b1-2)Man(a1-6)]Man(b1-4)GlcNAc(b1-4)GlcNAc
# How it was run: as §1
# [38] = target: Neu5Gc(a2-3)Gal(b1-4)[Fuc(a1-3)]GlcNAc
# How it was run: as §1
# [39] = target: Neu5Gc(a2-6)Gal(b1-4)GlcNAc
# How it was run: as §1
# Neu5Gc(a2-6)GalNAc = target: Neu5Gc(a2-6)GalNAc
# How it was run: as §1
# [40] = target: Neu5Gc(a2-8)Neu5Ac(a2-3)Gal(b1-4)GlcNAc
# How it was run: as §1
binder,measurement,setting,value
B1,glycan array binding signal (z-score),[1],0.461
same,glycan array binding signal (z-score),[2],0.629
same,glycan array binding signal (z-score),[3],0.48
same,glycan array binding signal (z-score),[4],-0.157
same,glycan array binding signal (z-score),[5],0.01
same,glycan array binding signal (z-score),[6],-0.18
same,glycan array binding signal (z-score),[7],-0.061
same,glycan array binding signal (z-score),[8],0.401
same,glycan array binding signal (z-score),[9],-0.513
same,glycan array binding signal (z-score),[10],-0.312
same,glycan array binding signal (z-score),[11],-0.594
same,glycan array binding signal (z-score),[12],-0.43
same,glycan array binding signal (z-score),[13],-0.043
same,glycan array binding signal (z-score),Neu5Ac(a2-6)GalNAc,-0.418
same,glycan array binding signal (z-score),[14],-0.481
same,glycan array binding signal (z-score),[15],-0.364
same,glycan array binding signal (z-score),[16],-0.61
same,glycan array binding signal (z-score),[17],-0.281
same,glycan array binding signal (z-score),Neu5Ac(a2-8)Neu5Ac,-0.202
same,glycan array binding signal (z-score),[18],-0.215
same,glycan array binding signal (z-score),[19],-0.326
same,glycan array binding signal (z-score),[20],-0.282
same,glycan array binding signal (z-score),[21],-0.918
same,glycan array binding signal (z-score),[22],-0.531
same,glycan array binding signal (z-score),[23],0.12
same,glycan array binding signal (z-score),[24],-0.42
same,glycan array binding signal (z-score),[25],-0.5
same,glycan array binding signal (z-score),[26],-0.523
same,glycan array binding signal (z-score),[27],-0.081
same,glycan array binding signal (z-score),[28],-0.304
same,glycan array binding signal (z-score),[29],-0.631
same,glycan array binding signal (z-score),[30],0.234
same,glycan array binding signal (z-score),Neu5Ac(b2-6)GalNAc,-0.504
same,glycan array binding signal (z-score),[31],-0.15
same,glycan array binding signal (z-score),[32],-0.247
same,glycan array binding signal (z-score),[33],0.335
same,glycan array binding signal (z-score),[34],-0.439
same,glycan array binding signal (z-score),[35],-0.286
same,glycan array binding signal (z-score),Neu5Gc(a2-3)Gal(b1-4)Glc,0.145
same,glycan array binding signal (z-score),[36],-0.419
same,glycan array binding signal (z-score),[37],-0.111
same,glycan array binding signal (z-score),[38],0.593
same,glycan array binding signal (z-score),[39],0.309
same,glycan array binding signal (z-score),Neu5Gc(a2-6)GalNAc,-0.574
same,glycan array binding signal (z-score),[40],-0.248

# Some of the entries so far, with bars between the fields:
binder | measurement | setting | value
B1 | glycan array binding signal (z-score) | Neu5Ac(a2-6)GalNAc | -0.418
same | glycan array binding signal (z-score) | [14] | -0.481
same | glycan array binding signal (z-score) | [15] | -0.364
